Results are given in words; binding and its absence hold for the method and conditions named. In cells and extracts the contact can be indirect. Some binding calls cover weakened binding; strength is not graded here. Where a sequence is shown, tags or fusion partners need not be part of it.
Biological target: endogenous SpaC (Bacillus subtilis) (UniProt P33115)
Experiment: co-immunoprecipitation: purified His6-SpaB added to extracts of subtilin producing cells, precipitated with anti-His-tag antibodies, Western blot with anti-SpaC antibodies

By UniProt entry, the sequences of proteins in these tests, tags left out.
UniProt P33115: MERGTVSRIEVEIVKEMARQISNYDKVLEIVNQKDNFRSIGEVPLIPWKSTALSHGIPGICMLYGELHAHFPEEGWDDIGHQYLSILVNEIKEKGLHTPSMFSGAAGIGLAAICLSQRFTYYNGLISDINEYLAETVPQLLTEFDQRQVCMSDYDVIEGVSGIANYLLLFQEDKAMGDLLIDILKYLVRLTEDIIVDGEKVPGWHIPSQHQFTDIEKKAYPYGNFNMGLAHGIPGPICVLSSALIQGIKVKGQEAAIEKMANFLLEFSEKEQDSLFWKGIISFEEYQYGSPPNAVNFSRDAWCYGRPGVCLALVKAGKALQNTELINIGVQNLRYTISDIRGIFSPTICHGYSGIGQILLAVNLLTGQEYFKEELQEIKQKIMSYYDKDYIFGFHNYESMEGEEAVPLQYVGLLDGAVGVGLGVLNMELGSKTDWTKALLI

B1: His6-SpaB (enzyme)
chain: MKSLYTPTDYYMIRVPLVHQDLKNENSQDIDQLLHDLCNDSLFREQILVSSRTLYETIHTFLQAPDKLKGKKKRNFQQAILKYATRRATRTTPFGLFSSVGIGSFSDKNHLSFNQHSFYKKARVDLEWLYQLIRKLENEYTDRLSFTLNSACYIKGDRAYLLYSTDGKSEEVSVRATSVFYLINELCGESAAYQDIIRCLIDNYPNTPINKINQYVADLIDKEFLISNLRPPMTVSDQFQYLIDQAESRHIPNELIQACKDIQYQIDAYNRITIGEGEHQYLNLIETMNKLIKASSPLQVDAGLADSSIQLDNETSLAISELASMFTYMASPSANTLDHLEKYHNVFLERYGYEREVPLLEMLCSSTGIGAPATYTNPANEFFEETSFGEQFSPEMKQFFMRKYFESVRKKAPIQLDDETFHRICNSEIADEEIPLSFELNFFVKLRNGRVKLYLGPNVGSTRAGKTFGRFSHMSDSISEIIKTLHNKEKELTECNTKVCELSIVPNQTRSGNVTRNVSYREKEMSLFTNSALHLNDSVKAEDILIGINKDHNFYARHKTTGEILSFESNHMFNPLLMTNAVRFLLEISRDGKRKWNDFPWFSIYSDFKYIPEIKYKEITLSCEQWLIYKNDLSMHSNASLEEIKSPFFEFHRTYELPQTFYIVNADNRLLIDIENDCTLDVFFWELKKTNHNQPLQLVAVEHDADALMDRNQNDYSGEIVVPLLRKQPEKPLYLPVLNAIEGSGSDRIKMPFEDWLFIKLYCKQTREEELIAFEIADFYNQISDQYPVRHFFMRYRDPKPHIRLRFNGKAEVLYSLFPQLLNWLKSLREKGLVSESVITQYEREIERYGGLSLMEAAEQLFCEDSKVVEMMIRMHRMKDITISKEIAGMVSVIQFLEQFELTFEEQLTFLERNSLQNEYRTEFKKDREMYIEICNSDRDWDNLKKTSDGGMLYETLKTRKMAAAHYAFLIKKAFDNKDEVYSRIGSIIHLHCNRLFGTDRELENKILTLCRHSLYAQRYQKMNGSLAWK
- binding: binds

Reference: patent US20050164339A1
